No constants are given. Whether binding was seen depends on the method and setting. Binding seen in cells or lysates may run through a third protein. These calls come from enrichment with a bait or labelling near it, and not all partners need be listed.
B1: JUNB (protein, UniProt P17275 1-347)
chain: MCTKMEQPFYHDDSYTATGYGRAPGGLSLHDYKLLKPSLAVNLADPYRSLKAPGARGPGPEGGGGGSYFSGQGSDTGASLKLASSELERLIVPNSNGVITTTPTPPGQYFYPRGGGSGGGAGGAGGGVTEEQEGFADGFVKALDDLHKMNHVTPPNVSLGATGGPPAGPGGVYAGPEPPPVYTNLSSYSPASASSGGAGAAVGTGSSYPTTTISYLPHAPPFAGGHPAQLGLGRGASTFKEEPQTVPEARSRDATPPVSPINMEDQERIKVERKRLRNRLAATKCRKRKLERIARLEDKVKTLKAENAGLSSTAGLLREQVAQLKQKVMTHVSNGCQLLLGVKGHAF
B2: RB1 (protein, UniProt P06400 1-928)
chain: MPPKTPRKTAATAAAAAAEPPAPPPPPPPEEDPEQDSGPEDLPLVRLEFEETEEPDFTALCQKLKIPDHVRERAWLTWEKVSSVDGVLGGYIQKKKELWGICIFIAAVDLDEMSFTFTELQKNIEISVHKFFNLLKEIDTSTKVDNAMSRLLKKYDVLFALFSKLERTCELIYLTQPSSSISTEINSALVLKVSWITFLLAKGEVLQMEDDLVISFQLMLCVLDYFIKLSPPMLLKEPYKTAVIPINGSPRTPRRGQNRSARIAKQLENDTRIIEVLCKEHECNIDEVKNVYFKNFIPFMNSLGLVTSNGLPEVENLSKRYEEIYLKNKDLDARLFLDHDKTLQTDSIDSFETQRTPRKSNLDEEVNVIPPHTPVRTVMNTIQQLMMILNSASDQPSENLISYFNNCTVNPKESILKRVKDIGYIFKEKFAKAVGQGCVEIGSQRYKLGVRLYYRVMESMLKSEEERLSIQNFSKLLNDNIFHMSLLACALEVVMATYSRSTSQNLDSGTDLSFPWILNVLNLKAFDFYKVIESFIKAEGNLTREMIKHLERCEHRIMESLAWLSDSPLFDLIKQSKDREGPTDHLESACPLNLPLQNNHTAADMYLSPVRSPKKKGSTTRVNSTANAETQATSAFQTQKPLKSTSLSLFYKKVYRLAYLRLNTLCERLLSEHPELEHIIWTLFQHTLQNEYELMRDRHLDQIMMCSMYGICKVKNIDLKFKIIVTAYKDLPHAVQETFKRVLIKEEEYDSIIVFYNSVFMQRLKTNILQYASTRPPTLSPIPHIPRSPYKFPSSPLRIPGGNIYISPLKSPYKISEGLPTPTKMTPRSRILVSIGESFGTSEKFQKINQMVCNSDRVLKRSAEGSNPPKPLKKLRFDIEGSDEADGSKHLPGESKFQQKLAEMTSTRTRMQKQKMNDSMDTSNKEEK
B3: JUND (protein, UniProt P17535 1-347)
chain: METPFYGDEALSGLGGGASGSGGSFASPGRLFPGAPPTAAAGSMMKKDALTLSLSEQVAAALKPAAAPPPTPLRADGAPSAAPPDGLLASPDLGLLKLASPELERLIIQSNGLVTTTPTSSQFLYPKVAASEEQEFAEGFVKALEDLHKQNQLGAGAAAAAAAAAAGGPSGTATGSAPPGELAPAAAAPEAPVYANLSSYAGGAGGAGGAATVAFAAEPVPFPPPPPPGALGPPRLAALKDEPQTVPDVPSFGESPPLSPIDMDTQERIKAERKRLRNRIAASKCRKRKLERISRLEEKVKTLKSQNTELASTASLLREQVAQLKQKVLSHVNSGCQLLPQHQVPAY
B4: POU3F1 (protein, UniProt Q03052 1-451)
chain: MATTAQYLPRGPGGGAGGTGPLMHPDAAAAAAAAAAAERLHAGAAYREVQKLMHHEWLGAGAGHPVGLAHPQWLPTGGGGGGDWAGGPHLEHGKAGGGGTGRADDGGGGGGFHARLVHQGAAHAGAAWAQGSTAHHLGPAMSPSPGASGGHQPQPLGLYAQAAYPGGGGGGLAGMLAAGGGGAGPGLHHALHEDGHEAQLEPSPPPHLGAHGHAHGHAHAGGLHAAAAHLHPGAGGGGSSVGEHSDEDAPSSDDLEQFAKQFKQRRIKLGFTQADVGLALGTLYGNVFSQTTICRFEALQLSFKNMCKLKPLLNKWLEETDSSSGSPTNLDKIAAQGRKRKKRTSIEVGVKGALESHFLKCPKPSAHEITGLADSLQLEKEVVRVWFCNRRQKEKRMTPAAGAGHPPMDDVYAPGELGPGGGGASPPSAPPPPPPAALHHHHHHTLPGSVQ
B5: ZNF512 (protein, UniProt Q96ME7 1-567)
chain: MSSRLGAVPATSGPTTFKQQRSTRIVGAKNSRTQCSIKDNSFQYTIPHDDSLSGSSSASSCEPVSDFPASFRKSTYWMKMRRIKPAATSHVEGSGGVSAKGKRKPRQEEDEDYREFPQKKHKLYGRKQRPKTQPNPKSQARRIRKEPPVYAAGSLEEQWYLEIVDKGSVSCPTCQAVGRKTIEGLKKHMENCKQEMFTCHHCGKQLRSLAGMKYHVMANHNSLPILKAGDEIDEPSERERLRTVLKRLGKLRCMRESCSSSFTSIMGYLYHVRKCGKGAAELEKMTLKCHHCGKPYRSKAGLAYHLRSEHGPISFFPESGQPECLKEMNLESKSGGRVQRRSAKIAVYHLQELASAELAKEWPKRKVLQDLVPDDRKLKYTRPGLPTFSQEVLHKWKTDIKKYHRIQCPNQGCEAVYSSVSGLKAHLGSCTLGNFVAGKYKCLLCQKEFVSESGVKYHINSVHAEDWFVVNPTTTKSFEKLMKIKQRQQEEEKRRQQHRSRRSLRRRQQPGIELPETELSLRVGKDQRRNNEELVVSASCKEPEQEPVPAQFQKVKPPKTNHKRGRK
B6: ZNF598 (protein, UniProt Q86UK7 1-904)
chain: MAAAGGAEGRRAALEAAAAAAPERGGGSCVLCCGDLEATALGRCDHPVCYRCSTKMRVLCEQRYCAVCREELRQVVFGKKLPAFATIPIHQLQHEKKYDIYFADGKVYALYRQLLQHECPRCPELPPFSLFGDLEQHMRRQHELFCCRLCLQHLQIFTYERKWYSRKDLARHRMQGDPDDTSHRGHPLCKFCDERYLDNDELLKHLRRDHYFCHFCDSDGAQDYYSDYAYLREHFREKHFLCEEGRCSTEQFTHAFRTEIDLKAHRTACHSRSRAEARQNRHIDLQFSYAPRHSRRNEGVVGGEDYEEVDRYSRQGRVARAGTRGAQQSRRGSWRYKREEEDREVAAAVRASVAAQQQEEARRSEDQEEGGRPKKEEAAARGPEDPRGPRRSPRTQGEGPGPKETSTNGPVSQEAFSVTGPAAPGCVGVPGALPPPSPKLKDEDFPSLSASTSSSCSTAATPGPVGLALPYAIPARGRSAFQEEDFPALVSSVPKPGTAPTSLVSAWNSSSSSKKVAQPPLSAQATGSGQPTRKAGKGSRGGRKGGPPFTQEEEEDGGPALQELLSTRPTGSVSSTLGLASIQPSKVGKKKKVGSEKPGTTLPQPPPATCPPGALQAPEAPASRAEGPVAVVVNGHTEGPAPARSAPKEPPGLPRPLGSFPCPTPQEDFPALGGPCPPRMPPPPGFSAVVLLKGTPPPPPPGLVPPISKPPPGFSGLLPSPHPACVPSPATTTTTKAPRLLPAPRAYLVPENFRERNLQLIQSIRDFLQSDEARFSEFKSHSGEFRQGLISAAQYYKSCRDLLGENFQKVFNELLVLLPDTAKQQELLSAHTDFCNREKPLSTKSKKNKKSAWQATTQQAGLDCRVCPTCQQVLAHGDASSHQALHAARDDDFPSLQAIARIIT
B7: ZNF609 (protein, UniProt O15014 1-1411)
chain: MSLSSGASGGKGVDANPVETYDSGDEWDIGVGNLIIDLDADLEKDQQKLEMSGSKEVGIPAPNAVATLPDNIKFVTPVPGPQGKEGKSKSKRSKSGKDTSKPTPGTSLFTPSEGAASKKEVQGRSGDGANAGGLVAAIAPKGSEKAAKASRSVAGSKKEKENSSSKSKKERSEGVGTCSEKDPGVLQPVPLGGRGGQYDGSAGVDTGAVEPLGSIAIEPGAALNPLGTKPEPEEGENECRLLKKVKSEKMESPVSTPAVLPIHLLVPVVNNDISSPCEQIMVRTRSVGVNTCDVALATEPECLGPCEPGTSVNLEGIVWQETEDGMLVVNVTWRNKTYVGTLLDCTRHDWAPPRFCDSPTSDLEMRNGRGRGKRMRPNSNTPVNETATASDSKGTSNSSKTRAGANSKGRRGSQNSSEHRPPASSTSEDVKASPSSANKRKNKPLSDMELNSSSEDSKGSKRVRTNSMGSATGPLPGTKVEPTVLDRNCPSPVLIDCPHPNCNKKYKHINGLKYHQAHAHTDDDSKPEADGDSEYGEEPILHADLGSCNGASVSQKGSLSPARSATPKVRLVEPHSPSPSSKFSTKGLCKKKLSGEGDTDLGALSNDGSDDGPSVMDETSNDAFDSLERKCMEKEKCKKPSSLKPEKIPSKSLKSARPIAPAIPPQQIYTFQTATFTAASPGSSSGLTATVAQAMPNSPQLKPIQPKPTVMGEPFTVNPALTPAKDKKKKDKKKKESSKELESPLTPGKVCRAEEGKSPFRESSGDGMKMEGLLNGSSDPHQSRLASIKAEADKIYSFTDNAPSPSIGGSSRLENTTPTQPLTPLHVVTQNGAEASSVKTNSPAYSDISDAGEDGEGKVDSVKSKDAEQLVKEGAKKTLFPPQPQSKDSPYYQGFESYYSPSYAQSSPGALNPSSQAGVESQALKTKRDEEPESIEGKVKNDICEEKKPELSSSSQQPSVIQQRPNMYMQSLYYNQYAYVPPYGYSDQSYHTHLLSTNTAYRQQYEEQQKRQSLEQQQRGVDKKAEMGLKEREAALKEEWKQKPSIPPTLTKAPSLTDLVKSGPGKAKEPGADPAKSVIIPKLDDSSKLPGQAPEGLKVKLSDASHLSKEASEAKTGAECGRQAEMDPILWYRQEAEPRMWTYVYPAKYSDIKSEDERWKEERDRKLKEERSRSKDSVPKEDGKESTSSDCKLPTSEESRLGSKEPRPSVHVPVSSPLTQHQSYIPYMHGYSYSQSYDPNHPSYRSMPAVMMQNYPGSYLPSSYSFSPYGSKVSGGEDADKARASPSVTCKSSSESKALDILQQHASHYKSKSPTISDKTSQERDRGGCGVVGGGGSCSSVGGASGGERSVDRPRTSPSQRLMSTHHHHHHLGYSLLPAQYNLPYAAGLSSTAIVASQQGSTPSLYPPPRR

Protein sequences, listed by entry. Tags and fused reporters are not part of them.
UniProt P51532: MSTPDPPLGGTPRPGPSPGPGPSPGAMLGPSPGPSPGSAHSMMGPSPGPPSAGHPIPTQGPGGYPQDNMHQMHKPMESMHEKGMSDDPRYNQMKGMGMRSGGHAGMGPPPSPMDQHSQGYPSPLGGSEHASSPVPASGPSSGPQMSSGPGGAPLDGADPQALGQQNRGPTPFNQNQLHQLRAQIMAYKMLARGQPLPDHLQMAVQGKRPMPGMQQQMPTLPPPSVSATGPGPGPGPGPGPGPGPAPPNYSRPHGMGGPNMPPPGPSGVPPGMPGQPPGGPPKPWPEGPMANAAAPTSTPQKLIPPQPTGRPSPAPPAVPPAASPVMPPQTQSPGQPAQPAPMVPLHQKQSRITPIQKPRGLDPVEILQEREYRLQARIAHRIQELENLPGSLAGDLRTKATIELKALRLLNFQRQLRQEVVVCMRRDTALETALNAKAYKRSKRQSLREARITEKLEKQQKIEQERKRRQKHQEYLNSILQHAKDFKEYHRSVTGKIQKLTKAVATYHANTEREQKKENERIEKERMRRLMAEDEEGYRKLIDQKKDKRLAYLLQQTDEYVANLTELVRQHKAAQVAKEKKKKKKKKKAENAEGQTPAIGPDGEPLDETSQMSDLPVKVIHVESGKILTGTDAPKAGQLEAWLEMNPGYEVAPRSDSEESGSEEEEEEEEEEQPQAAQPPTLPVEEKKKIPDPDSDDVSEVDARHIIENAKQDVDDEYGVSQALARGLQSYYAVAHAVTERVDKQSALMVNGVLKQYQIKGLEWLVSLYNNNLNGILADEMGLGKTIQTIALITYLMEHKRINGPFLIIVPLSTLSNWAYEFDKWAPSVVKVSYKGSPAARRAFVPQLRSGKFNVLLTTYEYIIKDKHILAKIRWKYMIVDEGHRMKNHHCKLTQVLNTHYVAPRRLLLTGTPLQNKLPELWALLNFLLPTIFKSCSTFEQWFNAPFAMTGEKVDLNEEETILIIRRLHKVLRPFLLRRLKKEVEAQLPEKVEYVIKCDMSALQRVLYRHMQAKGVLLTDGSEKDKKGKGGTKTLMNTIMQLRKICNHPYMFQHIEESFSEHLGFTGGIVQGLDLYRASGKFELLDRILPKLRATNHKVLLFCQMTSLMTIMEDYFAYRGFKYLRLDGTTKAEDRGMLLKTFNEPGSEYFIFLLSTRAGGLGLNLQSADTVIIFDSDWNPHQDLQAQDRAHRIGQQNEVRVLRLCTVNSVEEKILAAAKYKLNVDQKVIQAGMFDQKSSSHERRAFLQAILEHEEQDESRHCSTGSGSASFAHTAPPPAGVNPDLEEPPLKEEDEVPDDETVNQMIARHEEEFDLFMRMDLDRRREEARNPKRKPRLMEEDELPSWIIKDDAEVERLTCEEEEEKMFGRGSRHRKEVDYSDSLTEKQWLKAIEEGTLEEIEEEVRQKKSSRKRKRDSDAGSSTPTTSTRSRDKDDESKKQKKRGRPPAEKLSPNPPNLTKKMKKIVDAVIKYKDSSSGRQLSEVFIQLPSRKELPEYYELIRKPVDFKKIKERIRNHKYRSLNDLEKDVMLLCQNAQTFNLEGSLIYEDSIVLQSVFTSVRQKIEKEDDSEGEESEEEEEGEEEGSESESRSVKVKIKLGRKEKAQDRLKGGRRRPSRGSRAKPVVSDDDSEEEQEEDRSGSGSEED

Target: BRG1 (human (endogenous in MLS 402-91 and EWS TC-71)) (UniProt P51532)
Experiment: affinity purification with mass spectrometry; BRG1 IP: biotinylated BRG1 antibody on streptavidin magnetic beads, 50 µg nuclear extract of MLS 402-91 or of EWS TC-71 cells, 150 mM KCl, 10 mM Tris pH 7.5, overnight at 4 °C; TMT quantitative mass spectrometry; hits > 1.5-fold over the IgG control

Row | Binder | binding
1 | B1 | binds
2 | B2 | binds
3 | B3 | binds
4 | B4 | binds
5 | B5 | binds
6 | B6 | binds
7 | B7 | binds
